Measured values from publication PMC5382266 (Nature Communications, 2017).
No constants are given. Whether binding was seen depends on the method and setting. Some results given as binding are weak or reduced against the parent protein; the word gives no strength. For some of these results: Tags and fused reporters may be left off the sequences shown. Values belong to the molecule of their own block, whether it stands above or below them.

Protein sequences, listed by entry. Tags and fused reporters are not part of them. Lines headed by an entry give the natural chain unless they say otherwise; changes in a name come on top. Chains listed by the source or under a name are the forms on record and can include a tag or linker.
TSLP-Arg153Ser (Q969D9-1, form named): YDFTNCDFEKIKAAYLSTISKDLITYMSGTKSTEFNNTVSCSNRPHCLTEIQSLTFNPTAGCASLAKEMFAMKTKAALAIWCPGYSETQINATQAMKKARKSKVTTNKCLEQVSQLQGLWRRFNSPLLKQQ
TSLP-Arg149Ser/Arg150Ser (Q969D9-1, form named): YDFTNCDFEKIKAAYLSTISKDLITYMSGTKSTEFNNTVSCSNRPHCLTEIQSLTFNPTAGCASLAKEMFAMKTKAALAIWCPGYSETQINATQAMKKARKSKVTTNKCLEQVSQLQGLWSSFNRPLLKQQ
TSLP-Arg150Ser (Q969D9-1, form named): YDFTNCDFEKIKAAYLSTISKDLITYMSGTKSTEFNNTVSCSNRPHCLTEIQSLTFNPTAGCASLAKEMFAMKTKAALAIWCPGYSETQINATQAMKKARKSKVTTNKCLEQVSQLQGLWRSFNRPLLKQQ
biotinylated TSLP^R127A/R130S (Q969D9-1, form named): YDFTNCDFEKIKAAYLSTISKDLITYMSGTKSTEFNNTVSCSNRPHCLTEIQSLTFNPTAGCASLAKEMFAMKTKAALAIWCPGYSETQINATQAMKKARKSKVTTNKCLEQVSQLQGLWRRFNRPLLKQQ
TSLP-Arg149Ser (Q969D9-1, form named): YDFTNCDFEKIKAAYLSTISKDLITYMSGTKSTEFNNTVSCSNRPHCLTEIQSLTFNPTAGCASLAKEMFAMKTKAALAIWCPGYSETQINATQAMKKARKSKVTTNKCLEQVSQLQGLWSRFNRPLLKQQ

How the values were obtained:
[1] = molecular target: T1, full-length FLAG-tagged human TSLPR (human) (UniProt Q9HC73); assay: competitive TSLP-SEAP cell binding assay; different concentrations of unlabelled wild type or mutant TSLP displace TSLP-SEAP from HEK293T cells expressing TSLPR, 2 h at 6 °C in FACS buffer; log inhibitor versus response fit
T1 sequence: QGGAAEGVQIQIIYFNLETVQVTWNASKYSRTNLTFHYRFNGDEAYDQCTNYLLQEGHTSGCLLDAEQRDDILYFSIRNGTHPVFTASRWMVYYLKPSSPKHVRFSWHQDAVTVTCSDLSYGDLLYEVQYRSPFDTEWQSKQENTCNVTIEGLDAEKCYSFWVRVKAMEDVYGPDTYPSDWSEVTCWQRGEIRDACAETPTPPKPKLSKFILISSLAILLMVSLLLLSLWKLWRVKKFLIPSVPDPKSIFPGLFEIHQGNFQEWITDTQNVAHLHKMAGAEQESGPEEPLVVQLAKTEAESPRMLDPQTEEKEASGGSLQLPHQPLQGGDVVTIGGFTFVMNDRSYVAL

[2] = molecular target: T1, full-length FLAG-tagged human TSLPR (human); assay: competitive TSLP-SEAP cell binding assay; TSLP-SEAP in conditioned medium (diluted 15-fold) on HEK293T cells expressing TSLPR, 2 h at 6 °C in FACS buffer; bound alkaline phosphatase activity read by chemiluminescence
[3] = molecular target: biotinylated TSLP^R127A/R130S (human) (UniProt Q969D9); assay: BLI; data not shown; binding profile of TSLP-trap2 to TSLP, told as similar to that of TSLP-trap1; both purified
[4] = molecular target: biotinylated TSLP^R127A/R130S (human) (UniProt Q969D9); assay: BLI; biotinylated TSLP^R127A/R130S on streptavidin biosensors, analyte in solution; PBS with 0.01% BSA and 0.002% Tween 20, 25 °C, Octet RED96; 1:1 model; both purified

Molecule: TSLP-Arg153Ser (from UniProt Q969D9-1 29-159) (ligand)
binding [1]: no binding

Molecule: TSLP-Arg150Ser (from UniProt Q969D9-1 29-159) (ligand)
binding [1]: no binding

Molecule: TSLP-Arg149Ser (from UniProt Q969D9-1 29-159) (ligand)
binding [1]: no binding

Molecule: TSLP-trap2 (from UniProt P16871-1 21-239; Q9HC73-1 23-231)
binding [3]: binds

Second part, the molecule after the results:

binding [1]: no binding
Molecule: TSLP-Arg149Ser/Arg150Ser (from UniProt Q969D9-1 29-159) (ligand)

binding [2]: binds
Molecule: TSLP-SEAP fusion protein (from UniProt Q969D9-1 29-159) (ligand)

binding [4]: no binding
B1: soluble IL-7Rα ectodomain (domain or fragment, human, UniProt P16871-1 21-239, looked up)
chain: ESGYAQNGDLEDAELDDYSFSCYSQLEVNGSQHSLTCAFEDPDVNITNLEFEICGALVEVKCLNFRKLQEIYFIETKKFLLIGKSNICVKVGEKSLTCKKIDLTTIVKPEAPFDLSVVYREGANDFVVTFNTSHLQKKYVKVLMHDVAYRQEKDENKWTHVNLSSTKLTLLQRKLQPAAMYEIKVRSIPDHYFKGFWSEWSPSYYFRTPEINNSSGEMD
notes: signal peptide in the construct; extracellular fragment of human IL-7Rα, NP_002176.2, residues 1-239; also called interleukin 7 receptor α-chain
